Values from PubChem BioAssay AID1053208 (Peter MacCallum Cancer Centre, 2014).
Here is a random part of about 17,000 reagents. Of all reagents, 788 (4.7%) are marked active. 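Calls rest on z-score classes alone; an extra cut-off of viability at most 70% of control was not applied to them.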 Entries without a mark were called inactive. Further read-outs or replicates are left out here. No sequences are given here.

Test: 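Find knock-downs that sensitise mouse osteosarcoma cells to doxorubicin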 (primary screen)
System: mouse osteosarcoma cells, early-passage culture from an engineered mouse model of fibroblastic bone tumour
Reagents: siRNA pool against mouse genes, 40 nM
Duration: about 120 h (48 h before drug, then 72 h with drug)
Treatment: doxorubicin 100 nM for 72 h, roughly 30-40% inhibitory dose
Measured: 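Luminescent ATP signal taken as viability with or without 100 nM doxorubicin for 72 h; mean of two wells set against non-targeting siRNA and turned into robust z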
Reading the numbers: viability z-score with doxorubicin: higher = more viable cells under doxorubicin; viability z-score without drug: higher = more viable cells with knock-down alone
Active means: 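a pool counts as active when its viability z-score with doxorubicin is -2 or below and its z-score without drug lies between -2 and 2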

Against Nup54 (GeneID 269113), the entry reads combined z-score class low cell count with and without drug; viability z-score with doxorubicin -4.27; viability z-score without drug -2.36.
Knock-down of Senp6 (GeneID 215351) came out at: combined z-score class low cell count with doxorubicin only (active); viability z-score with doxorubicin -2.47; viability z-score without drug 0.17.
For Pgap4 (GeneID 67063), the entry reads combined z-score class no change with or without drug; viability z-score with doxorubicin -1.57; viability z-score without drug -0.67.
Depletion of Tkt (GeneID 21881) resulted in: combined z-score class no change with or without drug; viability z-score with doxorubicin 0.67; viability z-score without drug 0.51.
Against Mt3 (GeneID 17751), the entry reads combined z-score class no change with or without drug; viability z-score with doxorubicin -0.79; viability z-score without drug -1.35.
After knock-down of Riox2 (GeneID 67014), the record shows combined z-score class no change with or without drug; viability z-score with doxorubicin -0.11; viability z-score without drug 1.01.
Silencing of Ccdc127 (GeneID 67433) gave: combined z-score class no change with or without drug; viability z-score with doxorubicin 0.45; viability z-score without drug 0.51.
After knock-down of Ddit3 (GeneID 13198), the screen gave combined z-score class no change with or without drug; viability z-score with doxorubicin 0.67; viability z-score without drug 0.51.
Gnai3 (GeneID 14679) showed combined z-score class no change with or without drug; viability z-score with doxorubicin 0.34; viability z-score without drug 1.18.
Depletion of Ntrk2 (GeneID 18212) gave: combined z-score class no change with or without drug; viability z-score with doxorubicin -0.22; viability z-score without drug -0.84.
Depletion of Ngfr (GeneID 18053) came out at: combined z-score class no change with or without drug; viability z-score with doxorubicin 0.9; viability z-score without drug -1.18.
With knock-down of Psmc1 (GeneID 19179) the results were combined z-score class low cell count with and without drug; viability z-score with doxorubicin -7.42; viability z-score without drug -5.56.
With knock-down of Gm4876 (GeneID 232599), the screen gave combined z-score class no change with or without drug; viability z-score with doxorubicin 0.9; viability z-score without drug 0.34.
Knock-down of Prdm2 (GeneID 110593) resulted in: combined z-score class no change with or without drug; viability z-score with doxorubicin 1.46; viability z-score without drug 1.18.
Depletion of Tppp (GeneID 72948) gave: combined z-score class no change with or without drug; viability z-score with doxorubicin 1.35; viability z-score without drug -0.17.
Silencing of Nek8 (GeneID 140859) resulted in: combined z-score class no change with or without drug; viability z-score with doxorubicin 1.24; viability z-score without drug 1.18.
Depletion of 2610204M12RIK came out at: combined z-score class no change with or without drug; viability z-score with doxorubicin 0.67; viability z-score without drug 1.01.
After knock-down of Ceacam19 (GeneID 319930) the results were combined z-score class no change with or without drug; viability z-score with doxorubicin -1.12; viability z-score without drug -1.18.

In a second layout: results already given
{"target gene": "Mt3 (GeneID 17751)", "combined z-score class": "no change with or without drug", "viability z-score with doxorubicin": -0.79, "viability z-score without drug": -1.35}
{"target gene": "Riox2 (GeneID 67014)", "combined z-score class": "no change with or without drug", "viability z-score with doxorubicin": -0.11, "viability z-score without drug": 1.01}

Continued.
Silencing of Gnb3 (GeneID 14695) came out at: combined z-score class no change with or without drug; viability z-score with doxorubicin 0.22; viability z-score without drug 1.01.
TRPM3 gave combined z-score class no change with or without drug; viability z-score with doxorubicin -1.35; viability z-score without drug -0.17.
Zfp874a (GeneID 238692) scored combined z-score class no change with or without drug; viability z-score with doxorubicin -0.22; viability z-score without drug 0.51.
For Gan (GeneID 209239), the values are combined z-score class no change with or without drug; viability z-score with doxorubicin -0.22; viability z-score without drug 0.51.
Ube2g1 (GeneID 67128) showed combined z-score class no change with or without drug; viability z-score with doxorubicin 0.79; viability z-score without drug 1.01.
Against Slc6a6 (GeneID 21366), the entry reads combined z-score class no change with or without drug; viability z-score with doxorubicin 0.67; viability z-score without drug 1.01.
Depletion of Mrpl39 (GeneID 27393) came out at: combined z-score class low cell count with and without drug; viability z-score with doxorubicin -7.98; viability z-score without drug -9.95.
For Skint3 (GeneID 195564) the deposit lists combined z-score class no change with or without drug; viability z-score with doxorubicin -0.9; viability z-score without drug -0.67.
After knock-down of B2m (GeneID 12010) the results were combined z-score class no change with or without drug; viability z-score with doxorubicin 0.45; viability z-score without drug 0.17.
With knock-down of Fstl3 (GeneID 83554) the results were combined z-score class no change with or without drug; viability z-score with doxorubicin -0.45; viability z-score without drug -0.51.
